Values joined by “and” are separate entries in the source; they are usually repeats but may differ in a detail not shown here. Equal entries are not always repeated. The list shows a part of the results. These are further read-outs of the screen, such as a control signal, another cell line or another target. No call is given for them. Compounds called inactive in the main read-out are mostly missing here. Words in brackets tell the shape of the fitted curve; partial curves, single points and poor fits give uncertain potencies.
Test: qHTS Assay for Modulators of Lamin A Splicing
Settings: HeLa LMNA splicing GFP/RFP minigene ratio, 48 h
How it was run: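 S3 HeLa cells stably expressing lamin A-EGFP splicing minigene plus DsRed2, 600 cells/well, 48 h compound exposure at 37C. Laser-scanning cytometry; analysed as GFP (500-530 nm)/RFP (575-640 nm) total intensity ratio; 0.5% DMSO vehicle.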

[1] = measured here: GFP splicing reporter channel
[2] = measured here: RFP viability control channel

Row | SMILES | AC50 [1] | AC50 [2]
1 | COCC(=O)N=Nc1c(O)[nH]c2ccccc12 | 2.82 µM [falling, full curve, poor fit] | 3.98 µM [falling, single point]
2 | COc1cc(-c2nnc(COC(=O)c3c4c(nc5ccccc35)CCCC4)o2)cc(OC)c1OC |  | 0.112 µM [falling, full curve]
3 | O=c1[nH]c(=O)n(C2CCCO2)cc1F (centres undefined) | 12.6 µM [falling, partial curve, poor fit] | 17.8 µM [rising, partial curve, poor fit] and 12.6 µM [rising, partial curve]
4 | Cc1cc(C)n2nc(C(=O)N/N=C/c3ccccc3Cl)nc2n1 | 1.12 µM [falling, partial curve] | 2 µM [falling, partial curve]
5 | CCCCCOc1ccc(Br)cc1CSC(=N)N | 35.5 µM [falling, single point] | 
6 | COc1ccc(OC)c(Nc2nc(-c3ccc(O)c(O)c3)cs2)c1 |  | 2.82 µM [rising, full curve, poor fit]
7 | FC(F)(F)c1ccccc1-c1ccc2ncnc(NCc3cccs3)c2c1 | 14.1 µM [falling, partial curve] | 12.6 µM [falling, partial curve]
8 | CCN(CC)S(=O)(=O)c1cccc(NC(=O)/C=C/c2ccc([N+](=O)[O-])cc2)c1 |  | 15.8 µM [rising, single point]
9 | Cn1cc(CCCC(=O)NCc2ccc(F)cc2)c2ccccc21 | 1 µM [rising, full curve, poor fit] | 0.178 µM [rising, full curve, poor fit]
10 | COc1ccc(-c2nc(NC(=O)Cn3ccc(C(F)(F)F)n3)sc2C)cc1 |  | 15.8 µM [rising, single point]
11 | CCOC(=O)c1ccc(NC(=O)c2noc3c2CCCC3)cc1 |  | 0.00355 µM [falling, full curve, poor fit]
12 | Cc1cc(C)c(S(=O)(=O)N(CC(=O)N2CCCC2)C2CCCCC2)c(C)c1 | 3.98 µM [rising, full curve, poor fit] | 12.6 µM [rising, partial curve]
13 | CC(NCCC(c1ccccc1)c1ccccc1)c1ccccc1 (centres undefined) | 31.6 µM [rising, single point] | 
14 | COc1cc(CNn2c(C)n[nH]c2=S)cc(Cl)c1OCc1ccc(F)cc1 |  | 35.5 µM [rising, single point]
15 | Cc1cc(N2CCN(C)CC2)nc2ccc(NC(=O)Nc3ccc(F)cc3)cc12 | 25.1 µM [falling, single point] | 
16 | N#CCC(CNc1ncc(C(F)(F)F)cc1Cl)OC(=O)c1ccc(Cl)cc1Cl (centres undefined) |  | 20 µM [rising, partial curve, poor fit]
17 | CC(=O)Nc1ccccc1OCC(=O)N(Cc1ccccc1)C(C)C |  | 10 µM [rising, partial curve]
18 | COc1ccccc1NC(=O)c1ccc(NC(=O)COC(=O)C2(C)CC2(Cl)Cl)cc1 (centres undefined) |  | 14.1 µM [rising, single point]
19 | O=C(O)C1=NOC(CNC(=O)c2ccccc2Cl)C1 (centres undefined) | 0.112 µM [rising, full curve, poor fit] | 0.158 µM [rising, full curve, poor fit]
20 | CCCc1cnc2c(c1SCC(=O)Nc1ccccc1F)c(=O)n(C)c(=O)n2C |  | 6.31 µM [falling, partial curve, poor fit]
21 | CCOC(=O)C1(CCCc2ccccc2)CCN(Cc2cnc(C)s2)CC1 | 0.501 µM [falling, full curve, poor fit] | 
22 | COc1ccc(NC(=O)CSC2=Nc3ccccc3C3=NC(CC(=O)NCc4ccc5c(c4)OCO5)C(=O)N23)cc1 (centres undefined) | 0.282 µM [rising, partial curve, poor fit] | 1.12 µM [rising, full curve, poor fit]
23 | Cc1nc2ccc(S(=O)(=O)Nc3cc(-c4nc5cccnc5s4)ccc3C)cc2s1 |  | 10 µM [rising, partial curve]
24 | COc1ccc2cc(Br)ccc2c1CC(=O)NC(C)(C)C | 22.4 µM [rising, single point] | 15.8 µM [rising, single point]
25 | C=CCN1C(=O)C(Cc2ccccc2)SC1=Nc1ccc(C(=O)O)cc1 (centres undefined) |  | 0.0501 µM [falling, full curve, poor fit]
26 | CCOC(=O)CS(=O)(=O)c1nc(-c2ccc(F)cc2)cc(C(F)(F)F)n1 |  | 25.1 µM [rising, single point]
27 | Cc1ccc(C)c(N2CCN(S(=O)(=O)c3ccc4c(c3)OCCO4)CC2)c1 |  | 12.6 µM [rising, single point]

Row | SMILES | AC50 [1] | AC50 [2]
28 | COc1cc(/C=C/[N+](=O)[O-])ccc1OCc1cccc(C(=O)O)c1 | 14.1 µM [falling, single point] | 31.6 µM [rising, single point]
29 | COc1cc(Nc2ncc3c(n2)CCN(Cc2cc(F)cc(F)c2)C3)cc(OC)c1 |  | 5.62 µM [rising, single point]
30 | CCNC(=O)c1c(NC(=O)c2cc(-c3cc(C)ccc3O)n[nH]2)sc2c1CCCC2 | 0.0251 µM [rising, full curve] | 0.0158 µM [rising, full curve, poor fit]
31 | Cc1[nH]nc2c1C(c1cccc(O)c1)C1=C(CC(C)(C)CC1=O)N2 (centres undefined) | 4.47 µM [falling, partial curve] | 2.82 µM [falling, partial curve, poor fit]
32 | O=S(=O)(NCCc1csc2nc(-c3ccc(F)cc3)nn12)c1ccc(Oc2ccccc2)cc1 |  | 0.708 µM [falling, partial curve]
33 | COc1ccc(CNc2nc(-c3ccc(N(C)C)cc3)nc3ccccc23)c(OC)c1 | 11.2 µM [falling, partial curve] | 11.2 µM [falling, partial curve]
34 | COc1ccc(NC(=O)C2CCCN2S(=O)(=O)c2cccc3cccnc23)c(OC)c1 (centres undefined) |  | 35.5 µM [rising, single point]
35 | CCOC(=O)c1[nH]c(C)c(CCC(=O)Nc2ccc(Br)c(C)c2)c1C | 1.26 µM [rising, full curve] | 
36 | Cc1ccc(N2CC(NC(=O)C3CC3)CC2=O)cc1C (centres undefined) | 0.00316 µM [falling, full curve, poor fit] | 
37 | O=C(N=NC(=O)c1ccco1)c1ccc2c(O)n(N3C(=O)c4ccccc4C3=O)c(O)c2c1 |  | 1.78 µM [falling, partial curve]
38 | OC1C(O)C(O)C(O)C(O)C1O (centres undefined) |  | 10 µM [rising, partial curve, poor fit]
39 | O=C(CSc1n[nH]c(-c2ccccc2O)n1)N1CCCc2ccccc21 | 35.5 µM [falling, single point] | 35.5 µM [falling, single point]
40 | CC(=O)N1C(=O)/C(=C2\SC(=S)N(NC(=O)c3ccc(O)cc3)C2=O)c2ccccc21 | 7.94 µM [falling, partial curve] | 15.8 µM [falling, partial curve, poor fit]
41 | O=C(COC(=O)c1ccc(Sc2ccccc2)c([N+](=O)[O-])c1)NC1CCS(=O)(=O)C1 (centres undefined) | 12.6 µM [rising, single point] | 
42 | O=C(c1ccc(S(=O)(=O)NCc2ccco2)cc1)N1CCCC1 |  | 0.794 µM [falling, full curve, poor fit]
43 | CC(=O)Nc1ccc(S(=O)(=O)NC2(C(F)(F)F)C(=O)Nc3c2c(=O)[nH]c(=O)n3Cc2cccnc2)cc1 (centres undefined) | 0.158 µM [falling, full curve, poor fit] | 0.178 µM [falling, full curve]
44 | COc1ccc(COc2cc(-c3cccc(OC)c3)nc3ccc(NC(=O)c4ccc(OC)cc4)cc23)cc1 | 4.47 µM [rising, full curve] | 3.98 µM [rising, full curve]
45 | CCCCNC(=S)NNC(=O)c1csc(C(C)C)c1 |  | 31.6 µM [rising, single point]
46 | CCOC(=O)/C(C#N)=C\c1cc(C)n(-c2ccccc2)c1C | 25.1 µM [rising, partial curve] | 
47 | COc1ccc(Nc2ccnc(Nc3ccc(OC)cc3)n2)cc1 | 1 µM [rising, partial curve, poor fit] | 12.6 µM [rising, partial curve]
48 | CCOC(=O)c1cnc(N2CCN(c3ccc(C)cc3C)CC2)c2ccccc12 |  | 35.5 µM [rising, single point]
49 | CCOC(=O)C1Cn2c(nc3c(c2=O)C2(CCCC2)Cc2ccccc2-3)S1 (centres undefined) | 35.5 µM [rising, single point] | 35.5 µM [rising, single point]
50 | Cn1c(=O)c2c(SCC(=O)Nc3ccc(F)cc3F)nc(C3CCCC3)nc2n(C)c1=O |  | 35.5 µM [falling, single point]
51 | CCOCc1cnc(C)nc1NCC(=O)c1c(C)[nH]c2cc(C)ccc12 |  | 11.2 µM [rising, partial curve]
52 | Cc1ccc(C)c(-n2c3nc(=O)[nH]c(=O)c-3cc3cc([N+](=O)[O-])ccc32)c1 | 28.2 µM [falling, single point] | 
53 | C=CCNC(=S)Nc1cc(C)ccn1 | 35.5 µM [rising, partial curve] | 
54 | Cc1sc2nc(CN(C(=O)c3cccs3)C3CCCC3)[nH]c(=O)c2c1C | 12.6 µM [rising, partial curve, poor fit] | 12.6 µM [rising, partial curve]

A portion of the results above:
Row | SMILES | AC50 [1] | AC50 [2]
37 | O=C(N=NC(=O)c1ccco1)c1ccc2c(O)n(N3C(=O)c4ccccc4C3=O)c(O)c2c1 |  | 1.78 µM [falling, partial curve]
38 | OC1C(O)C(O)C(O)C(O)C1O (centres undefined) |  | 10 µM [rising, partial curve, poor fit]
39 | O=C(CSc1n[nH]c(-c2ccccc2O)n1)N1CCCc2ccccc21 | 35.5 µM [falling, single point] | 35.5 µM [falling, single point]
40 | CC(=O)N1C(=O)/C(=C2\SC(=S)N(NC(=O)c3ccc(O)cc3)C2=O)c2ccccc21 | 7.94 µM [falling, partial curve] | 15.8 µM [falling, partial curve, poor fit]

— PubChem BioAssay AID1487 (National Center for Advancing Translational Sciences (NCATS), 2009)
